{
  "sequences": {"note": "The chains behind the UniProt entries cited, without tags or fusion partners. Where a name states a change or a piece, a line headed by the entry shows the natural chain unless it says otherwise.", "UniProt Q384V7": "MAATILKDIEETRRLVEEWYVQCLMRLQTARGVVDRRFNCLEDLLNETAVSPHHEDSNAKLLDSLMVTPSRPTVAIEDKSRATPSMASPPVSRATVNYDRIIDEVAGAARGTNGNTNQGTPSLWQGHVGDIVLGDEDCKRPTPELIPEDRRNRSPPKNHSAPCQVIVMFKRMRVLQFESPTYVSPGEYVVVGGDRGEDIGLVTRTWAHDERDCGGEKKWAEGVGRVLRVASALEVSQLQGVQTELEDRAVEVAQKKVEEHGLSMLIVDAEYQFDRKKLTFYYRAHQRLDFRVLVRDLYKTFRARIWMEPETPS", "UniProt Q389Y5": "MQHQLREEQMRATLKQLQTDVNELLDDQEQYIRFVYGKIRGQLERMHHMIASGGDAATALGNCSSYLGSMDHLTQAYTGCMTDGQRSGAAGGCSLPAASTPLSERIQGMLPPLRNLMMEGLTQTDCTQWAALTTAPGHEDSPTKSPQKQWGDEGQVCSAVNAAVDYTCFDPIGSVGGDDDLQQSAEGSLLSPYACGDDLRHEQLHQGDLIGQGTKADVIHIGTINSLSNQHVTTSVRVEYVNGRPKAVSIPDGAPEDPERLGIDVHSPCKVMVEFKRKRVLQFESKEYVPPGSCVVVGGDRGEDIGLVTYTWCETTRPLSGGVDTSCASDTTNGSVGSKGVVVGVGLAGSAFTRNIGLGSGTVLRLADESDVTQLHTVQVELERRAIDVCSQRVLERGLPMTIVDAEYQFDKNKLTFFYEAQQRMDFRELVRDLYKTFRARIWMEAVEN"},
  "source": "paper PMC6907760",
  "target": "HA-TbCSBPII-33 (Trypanosoma brucei) (UniProt Q384V7)",
  "experiment": "affinity purification with mass spectrometry; anti-HA magnetic beads, cleared lysate of SILAC labelled procyclic T. brucei with the HA-tagged bait against the parental untagged line; 50 mM Tris pH 7.6, 150 mM NaCl, 10% glycerol, 0.1% NP-40, 3 h at 4 °C; eluted with HA peptide; biological replicates with label swap",
  "note": "These are yes or no findings as the source states them, for the method shown. Binding seen in cells or lysates may run through a third protein. These calls come from enrichment with a bait or labelling near it, and not all partners need be listed.",
  "data": [
    {"substance": "PCD4 (from UniProt Q389Y5)", "values": [
      {"measurement": "binding", "value": "binds"}
    ]}
  ]
}
